Experimental findings from doi:10.1101/163998 are described below.

Sequences of proteins named here, by UniProt entry; tags and fusion partners are left off. A change or cut given only in a name is not applied to a line headed by its entry.
UniProt Q04637, whole entry: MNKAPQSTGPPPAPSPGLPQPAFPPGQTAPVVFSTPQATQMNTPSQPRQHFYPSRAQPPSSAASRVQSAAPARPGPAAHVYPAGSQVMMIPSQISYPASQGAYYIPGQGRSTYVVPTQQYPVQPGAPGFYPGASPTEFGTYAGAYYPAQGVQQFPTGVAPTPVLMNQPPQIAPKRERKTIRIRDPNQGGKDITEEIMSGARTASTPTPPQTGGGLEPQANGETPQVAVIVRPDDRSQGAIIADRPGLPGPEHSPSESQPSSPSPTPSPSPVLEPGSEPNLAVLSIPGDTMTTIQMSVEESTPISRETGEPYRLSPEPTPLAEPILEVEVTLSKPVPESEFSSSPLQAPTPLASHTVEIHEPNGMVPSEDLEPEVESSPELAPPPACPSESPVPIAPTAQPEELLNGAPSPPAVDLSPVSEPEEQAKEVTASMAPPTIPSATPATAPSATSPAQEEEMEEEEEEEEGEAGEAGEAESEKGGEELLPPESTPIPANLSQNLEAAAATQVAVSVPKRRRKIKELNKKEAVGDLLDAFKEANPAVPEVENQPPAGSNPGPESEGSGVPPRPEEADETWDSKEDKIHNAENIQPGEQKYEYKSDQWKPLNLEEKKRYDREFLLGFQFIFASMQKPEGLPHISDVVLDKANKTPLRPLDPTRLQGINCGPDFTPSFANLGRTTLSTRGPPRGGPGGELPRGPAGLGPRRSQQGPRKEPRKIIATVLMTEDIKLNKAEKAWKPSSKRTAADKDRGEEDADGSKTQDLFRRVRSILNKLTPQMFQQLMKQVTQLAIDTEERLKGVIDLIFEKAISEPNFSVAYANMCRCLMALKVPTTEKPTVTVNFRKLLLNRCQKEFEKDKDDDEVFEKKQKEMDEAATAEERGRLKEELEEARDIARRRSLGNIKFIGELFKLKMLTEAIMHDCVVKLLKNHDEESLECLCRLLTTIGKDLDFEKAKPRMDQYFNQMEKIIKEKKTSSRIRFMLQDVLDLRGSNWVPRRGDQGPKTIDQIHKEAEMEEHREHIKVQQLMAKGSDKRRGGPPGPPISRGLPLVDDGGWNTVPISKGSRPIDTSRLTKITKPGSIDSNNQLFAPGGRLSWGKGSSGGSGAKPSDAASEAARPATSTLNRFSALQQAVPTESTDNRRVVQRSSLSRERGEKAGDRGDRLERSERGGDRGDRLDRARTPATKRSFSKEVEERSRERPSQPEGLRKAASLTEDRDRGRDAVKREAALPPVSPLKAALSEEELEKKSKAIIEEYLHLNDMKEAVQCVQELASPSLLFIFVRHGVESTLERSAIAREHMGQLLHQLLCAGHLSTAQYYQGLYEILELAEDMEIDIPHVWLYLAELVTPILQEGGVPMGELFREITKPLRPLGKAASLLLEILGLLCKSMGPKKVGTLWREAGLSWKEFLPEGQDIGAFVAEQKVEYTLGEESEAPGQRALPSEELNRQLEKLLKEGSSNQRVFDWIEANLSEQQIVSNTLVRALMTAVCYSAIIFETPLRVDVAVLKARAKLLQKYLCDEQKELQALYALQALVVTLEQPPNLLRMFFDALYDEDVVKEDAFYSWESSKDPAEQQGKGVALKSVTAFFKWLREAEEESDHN
UniProt P60842, whole entry: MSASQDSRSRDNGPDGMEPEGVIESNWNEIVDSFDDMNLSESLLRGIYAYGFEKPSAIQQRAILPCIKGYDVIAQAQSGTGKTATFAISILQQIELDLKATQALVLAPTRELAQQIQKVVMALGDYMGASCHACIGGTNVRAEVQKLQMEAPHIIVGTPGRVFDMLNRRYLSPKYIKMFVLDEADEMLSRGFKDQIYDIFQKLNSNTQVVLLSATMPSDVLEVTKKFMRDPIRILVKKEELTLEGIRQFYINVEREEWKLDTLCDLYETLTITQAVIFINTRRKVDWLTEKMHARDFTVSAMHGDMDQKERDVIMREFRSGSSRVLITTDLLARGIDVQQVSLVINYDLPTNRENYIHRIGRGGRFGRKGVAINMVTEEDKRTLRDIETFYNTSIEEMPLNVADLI
UniProt Q13568, whole entry: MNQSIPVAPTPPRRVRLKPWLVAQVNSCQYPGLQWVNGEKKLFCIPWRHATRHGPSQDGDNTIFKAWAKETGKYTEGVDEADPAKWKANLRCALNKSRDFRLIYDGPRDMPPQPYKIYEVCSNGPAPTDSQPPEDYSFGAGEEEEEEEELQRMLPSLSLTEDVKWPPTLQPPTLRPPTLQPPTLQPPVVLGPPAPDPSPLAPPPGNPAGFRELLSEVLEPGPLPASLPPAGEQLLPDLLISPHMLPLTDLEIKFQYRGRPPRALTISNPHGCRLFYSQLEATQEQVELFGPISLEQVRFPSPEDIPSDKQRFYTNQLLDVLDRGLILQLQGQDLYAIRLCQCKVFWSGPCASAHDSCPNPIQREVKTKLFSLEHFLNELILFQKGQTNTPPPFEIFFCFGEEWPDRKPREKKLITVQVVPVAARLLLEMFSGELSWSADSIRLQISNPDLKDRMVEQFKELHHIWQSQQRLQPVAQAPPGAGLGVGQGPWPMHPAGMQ

Assay [1] deals with HA-tagged eIF4G (full-length) (UniProt Q04637). The experiment in a line: co-IP.
The target of assay [2] is eIF4A, endogenous, human cell lines (human (endogenous in THP1, BJAB and HEK293T)) (UniProt P60842). Put plainly: co-IP.

These are yes or no findings as the source states them, for the method shown. Binding seen in cells or lysates may run through a third protein. Some results given as binding are weak or reduced against the parent protein; the word gives no strength.

As to “FLAG-tagged IRF5 variant V1 (from UniProt Q13568 1-498)”, the binding result in assay [1] is given as “binds”. With “Interferon Regulatory Factor 5 (IRF5), endogenous, human cell lines (from UniProt Q13568 1-498)”, the binding entry in assay [2] is given as “binds”.
